Assay results published in PubChem BioAssay AID624297 (National Center for Advancing Translational Sciences (NCATS), 2012).
Out of some 340,000 compounds screened, about 6,200 (1.8%) were called active. The inconclusive results got no clear call from the source; some entries with a clear call stand among them for comparison. Calls come from the whole dose curve; as a rule, active = well fitted activation curve with a large enough effect; inconclusive = small, poorly fitted or top-dose-only effect; inactive = no such curve, though single readings can be large or run the other way. A potency beside an inconclusive call is a rough fit, not a confirmed value.

Test: A quantitative high throughput screen for small molecules that induce DNA re-replication in SW480 colon adenocarcinoma cells. For re-replication activation: % of control where 0% means no effect. Note: nearly all actives have a fitted effect of over 55% in size.
Settings: Hoechst DNA content imaging, 48 h; re-replication activation: at 46.1 µM (top of the series) unless noted
How it was run: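 Image-based read-out: total Hoechst fluorescence of nuclei (405 nm excitation, 500-530 nm emission), with hits raising the fraction of high-intensity nuclei. SW480 colon cells incubated 48 hr with compounds at 37 C.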
Potency is the fitted concentration of half-maximal effect.

| SMILES | Potency | re-replication activation |
| --- | --- | --- |
| CN(/N=C/c1cc(Cl)cc(Cl)c1O)C(=S)NC(C)(C)C | inconclusive: 29.1 µM [activator, single point] |  |
| CN(CCCC(=O)Nc1ccccc1F)S(=O)(=O)c1ccc(F)cc1 | inconclusive: 29.1 µM [activator, single point] |  |
| NC(=O)C(F)(F)C12OC3C4C5CC(C6C5C3C61)C42 (centres undefined) | inconclusive: 29.1 µM [activator, single point] |  |
| CCc1ccc(NC(=O)Cn2c3[n+](c4c(F)c(F)ccc42)CCCCC3)cc1 | inconclusive: 16.4 µM [activator, single point] |  |
| COc1ccc(Cl)cc1NC(=O)C1Cc2ccccc2CN1S(C)(=O)=O (centres undefined) | inconclusive: 15.8 µM [activator, partial curve, poor fit] |  |
| N=C1S/C(=C\c2ccc(-c3cccc(Cl)c3)o2)C(=O)N1c1nccs1 | inconclusive: 15.8 µM [activator, single point] |  |
| Cc1ccc2cc(CN(Cc3nnnn3Cc3ccco3)CC3CCCO3)c(=O)[nH]c2c1C (centres undefined) |  | inactive: 1.93% |
| CCCCCCCCCCCCCCCCCCOC[C@H](COP(=O)([O-])OCC[N+](C)(C)C)OC | active: 21.1 µM |  |
| CCC(CO)NS(=O)(=O)c1cc(-c2nn(C)c(=O)c3ccccc23)ccc1C (centres undefined) | inconclusive: 18.4 µM [activator, partial curve, poor fit] |  |
| C/C(=C\c1ccc2c(c1)OCO2)C(=O)c1c(C)cc(C)[nH]c1=O |  | inactive: -3.28% |
| COc1ccc(S(=O)(=O)NCc2cccnc2)cc1C |  | inactive: -2.01% |
| O=C(CCc1nc(-c2ccc(Cl)cc2)no1)NC1CCCC1 |  | inactive: -5.29% |
| COc1ccc(-c2sc3cc(OC)c(OC)cc3c2C#CCO)cc1 | active: 3.26 µM |  |
| Cc1ccc2c(C)nc(Nc3ncc4c(n3)CCCC4=O)nc2c1 |  | inactive: -11.6% |
| CCCOc1ccc2oc(=O)c3c(c2c1)CCCN3C(=O)CN1CCc2ccccc2C1 | inconclusive: 18.4 µM [activator, single point] |  |
| COc1cccc(CNCC2CCCO2)c1 (centres undefined) | inconclusive: 6.51 µM [activator, single point] |  |
| O=C(NC(=O)c1cnccc1C(F)(F)F)Nc1ccccc1 | inconclusive: 0.461 µM [activator, partial curve, poor fit] |  |
| COc1ccc(CN2CCN(CC=C(C)C)C(CCO)C2)cc1Cn1cccn1 (centres undefined) | inconclusive: 29.1 µM [activator, single point] |  |
| COc1ccc(N2C(=O)c3ccc(C(=O)OC(C)C)cc3C2=O)cc1 | inconclusive: 1.64 µM [activator, partial curve, poor fit] |  |

Grouped by structure, the entries above with a furan ring, fused or not.

| SMILES | Potency | re-replication activation |
| --- | --- | --- |
| N=C1S/C(=C\c2ccc(-c3cccc(Cl)c3)o2)C(=O)N1c1nccs1 | inconclusive: 15.8 µM [activator, single point] |  |
| Cc1ccc2cc(CN(Cc3nnnn3Cc3ccco3)CC3CCCO3)c(=O)[nH]c2c1C (centres undefined) |  | inactive: 1.93% |
